Source: the supplement of paper PMC10849652
The list shows a part of the results.

Chains of the proteins cited; added tags and fusions are not shown. Lines headed by an entry give the natural chain unless they say otherwise; changes in a name come on top.
UniProt Q9NX76: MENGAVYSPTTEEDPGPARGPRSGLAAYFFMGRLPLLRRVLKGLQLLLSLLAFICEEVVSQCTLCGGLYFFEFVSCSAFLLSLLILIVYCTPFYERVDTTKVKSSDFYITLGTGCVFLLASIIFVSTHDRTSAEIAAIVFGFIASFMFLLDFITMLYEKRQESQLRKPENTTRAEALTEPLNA
UniProt P51788: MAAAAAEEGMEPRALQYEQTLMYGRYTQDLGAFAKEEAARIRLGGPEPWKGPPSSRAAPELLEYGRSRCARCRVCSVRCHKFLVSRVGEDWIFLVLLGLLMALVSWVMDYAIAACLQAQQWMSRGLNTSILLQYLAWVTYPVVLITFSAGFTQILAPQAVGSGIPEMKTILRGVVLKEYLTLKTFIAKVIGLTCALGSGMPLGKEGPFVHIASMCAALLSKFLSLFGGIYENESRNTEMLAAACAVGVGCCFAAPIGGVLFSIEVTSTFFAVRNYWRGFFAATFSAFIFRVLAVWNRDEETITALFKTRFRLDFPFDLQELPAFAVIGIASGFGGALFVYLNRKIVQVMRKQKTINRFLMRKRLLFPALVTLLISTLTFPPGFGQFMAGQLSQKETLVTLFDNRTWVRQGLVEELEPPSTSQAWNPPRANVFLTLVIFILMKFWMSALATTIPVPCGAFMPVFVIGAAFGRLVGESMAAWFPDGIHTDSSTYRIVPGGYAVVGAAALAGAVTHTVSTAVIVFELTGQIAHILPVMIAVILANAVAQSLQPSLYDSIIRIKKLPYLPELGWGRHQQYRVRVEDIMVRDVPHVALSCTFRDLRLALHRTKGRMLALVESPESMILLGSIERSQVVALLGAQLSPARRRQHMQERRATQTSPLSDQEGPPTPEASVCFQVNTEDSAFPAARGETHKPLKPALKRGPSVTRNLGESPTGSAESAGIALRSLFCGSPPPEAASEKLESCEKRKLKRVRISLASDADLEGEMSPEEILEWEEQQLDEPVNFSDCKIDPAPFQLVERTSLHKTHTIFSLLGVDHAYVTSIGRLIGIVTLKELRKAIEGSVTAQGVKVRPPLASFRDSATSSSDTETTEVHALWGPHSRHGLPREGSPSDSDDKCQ
UniProt P09496: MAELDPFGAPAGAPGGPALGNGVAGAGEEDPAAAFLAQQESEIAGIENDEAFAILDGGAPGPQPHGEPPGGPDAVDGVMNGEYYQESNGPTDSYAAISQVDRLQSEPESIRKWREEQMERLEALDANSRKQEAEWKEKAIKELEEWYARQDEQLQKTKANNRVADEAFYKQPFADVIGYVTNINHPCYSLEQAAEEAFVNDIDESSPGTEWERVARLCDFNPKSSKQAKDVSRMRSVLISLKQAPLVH
UniProt O75503: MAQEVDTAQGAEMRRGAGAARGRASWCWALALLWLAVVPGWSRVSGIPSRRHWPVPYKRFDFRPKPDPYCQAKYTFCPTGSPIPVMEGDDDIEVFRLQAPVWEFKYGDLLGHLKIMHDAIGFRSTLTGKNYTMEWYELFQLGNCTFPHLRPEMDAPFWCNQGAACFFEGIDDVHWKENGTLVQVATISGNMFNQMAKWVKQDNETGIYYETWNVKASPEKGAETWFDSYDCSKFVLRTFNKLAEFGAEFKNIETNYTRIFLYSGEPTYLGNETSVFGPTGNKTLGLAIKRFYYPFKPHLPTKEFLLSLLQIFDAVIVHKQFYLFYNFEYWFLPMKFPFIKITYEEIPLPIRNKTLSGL
UniProt Q9P003: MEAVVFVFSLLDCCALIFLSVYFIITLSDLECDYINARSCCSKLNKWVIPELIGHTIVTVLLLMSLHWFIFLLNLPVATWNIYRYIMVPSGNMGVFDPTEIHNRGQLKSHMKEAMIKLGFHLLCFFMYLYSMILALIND
UniProt Q9NY35: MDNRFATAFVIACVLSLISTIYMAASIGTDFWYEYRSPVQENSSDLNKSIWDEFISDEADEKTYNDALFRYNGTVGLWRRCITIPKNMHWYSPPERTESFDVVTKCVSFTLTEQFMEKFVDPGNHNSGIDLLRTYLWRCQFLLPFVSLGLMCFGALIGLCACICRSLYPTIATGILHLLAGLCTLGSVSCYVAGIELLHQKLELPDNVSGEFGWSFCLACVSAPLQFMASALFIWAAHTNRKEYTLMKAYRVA
UniProt P54105: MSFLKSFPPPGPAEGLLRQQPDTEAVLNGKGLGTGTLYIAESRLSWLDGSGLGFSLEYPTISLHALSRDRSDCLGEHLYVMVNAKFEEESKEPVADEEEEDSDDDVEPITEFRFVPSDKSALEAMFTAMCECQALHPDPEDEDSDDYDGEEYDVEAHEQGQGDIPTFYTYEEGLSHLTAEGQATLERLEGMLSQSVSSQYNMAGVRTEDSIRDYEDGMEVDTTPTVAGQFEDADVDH
UniProt P51790: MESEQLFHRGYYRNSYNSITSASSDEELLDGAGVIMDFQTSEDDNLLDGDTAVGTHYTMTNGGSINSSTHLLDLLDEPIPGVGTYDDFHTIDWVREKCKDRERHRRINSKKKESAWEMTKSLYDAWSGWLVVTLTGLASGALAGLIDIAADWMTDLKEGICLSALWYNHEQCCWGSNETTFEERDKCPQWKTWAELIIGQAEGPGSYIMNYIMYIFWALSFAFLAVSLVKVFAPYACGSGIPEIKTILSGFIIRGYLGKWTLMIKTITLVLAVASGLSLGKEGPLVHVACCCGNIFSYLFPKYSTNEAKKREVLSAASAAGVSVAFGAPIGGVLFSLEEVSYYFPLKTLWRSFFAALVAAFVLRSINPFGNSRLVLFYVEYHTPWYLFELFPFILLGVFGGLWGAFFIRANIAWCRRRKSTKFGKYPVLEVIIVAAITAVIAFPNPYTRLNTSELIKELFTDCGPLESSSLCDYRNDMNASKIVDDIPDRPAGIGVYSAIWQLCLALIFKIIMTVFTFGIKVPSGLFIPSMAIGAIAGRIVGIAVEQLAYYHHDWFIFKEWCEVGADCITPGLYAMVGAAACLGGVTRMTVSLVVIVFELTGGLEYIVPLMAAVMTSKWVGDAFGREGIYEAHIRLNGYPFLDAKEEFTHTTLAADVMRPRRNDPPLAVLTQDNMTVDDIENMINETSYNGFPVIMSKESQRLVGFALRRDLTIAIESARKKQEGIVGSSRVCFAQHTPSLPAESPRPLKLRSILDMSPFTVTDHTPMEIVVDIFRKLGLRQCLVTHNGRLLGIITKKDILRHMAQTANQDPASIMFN
UniProt Q14677: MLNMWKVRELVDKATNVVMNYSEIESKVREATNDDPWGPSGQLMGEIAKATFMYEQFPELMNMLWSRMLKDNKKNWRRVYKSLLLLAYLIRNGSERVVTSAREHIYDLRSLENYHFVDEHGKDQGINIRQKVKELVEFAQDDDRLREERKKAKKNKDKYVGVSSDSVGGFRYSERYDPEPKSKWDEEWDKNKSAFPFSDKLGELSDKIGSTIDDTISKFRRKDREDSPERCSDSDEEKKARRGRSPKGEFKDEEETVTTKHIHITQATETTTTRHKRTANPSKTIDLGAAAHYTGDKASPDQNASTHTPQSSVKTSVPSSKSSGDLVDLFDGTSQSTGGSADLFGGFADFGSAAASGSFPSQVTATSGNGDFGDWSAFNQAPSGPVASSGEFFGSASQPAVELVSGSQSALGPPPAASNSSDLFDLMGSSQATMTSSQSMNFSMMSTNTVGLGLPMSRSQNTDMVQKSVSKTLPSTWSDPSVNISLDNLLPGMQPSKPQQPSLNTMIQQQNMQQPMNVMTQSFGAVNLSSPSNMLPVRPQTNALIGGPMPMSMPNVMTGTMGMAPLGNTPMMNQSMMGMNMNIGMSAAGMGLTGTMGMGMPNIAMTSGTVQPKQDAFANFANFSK
UniProt O75122: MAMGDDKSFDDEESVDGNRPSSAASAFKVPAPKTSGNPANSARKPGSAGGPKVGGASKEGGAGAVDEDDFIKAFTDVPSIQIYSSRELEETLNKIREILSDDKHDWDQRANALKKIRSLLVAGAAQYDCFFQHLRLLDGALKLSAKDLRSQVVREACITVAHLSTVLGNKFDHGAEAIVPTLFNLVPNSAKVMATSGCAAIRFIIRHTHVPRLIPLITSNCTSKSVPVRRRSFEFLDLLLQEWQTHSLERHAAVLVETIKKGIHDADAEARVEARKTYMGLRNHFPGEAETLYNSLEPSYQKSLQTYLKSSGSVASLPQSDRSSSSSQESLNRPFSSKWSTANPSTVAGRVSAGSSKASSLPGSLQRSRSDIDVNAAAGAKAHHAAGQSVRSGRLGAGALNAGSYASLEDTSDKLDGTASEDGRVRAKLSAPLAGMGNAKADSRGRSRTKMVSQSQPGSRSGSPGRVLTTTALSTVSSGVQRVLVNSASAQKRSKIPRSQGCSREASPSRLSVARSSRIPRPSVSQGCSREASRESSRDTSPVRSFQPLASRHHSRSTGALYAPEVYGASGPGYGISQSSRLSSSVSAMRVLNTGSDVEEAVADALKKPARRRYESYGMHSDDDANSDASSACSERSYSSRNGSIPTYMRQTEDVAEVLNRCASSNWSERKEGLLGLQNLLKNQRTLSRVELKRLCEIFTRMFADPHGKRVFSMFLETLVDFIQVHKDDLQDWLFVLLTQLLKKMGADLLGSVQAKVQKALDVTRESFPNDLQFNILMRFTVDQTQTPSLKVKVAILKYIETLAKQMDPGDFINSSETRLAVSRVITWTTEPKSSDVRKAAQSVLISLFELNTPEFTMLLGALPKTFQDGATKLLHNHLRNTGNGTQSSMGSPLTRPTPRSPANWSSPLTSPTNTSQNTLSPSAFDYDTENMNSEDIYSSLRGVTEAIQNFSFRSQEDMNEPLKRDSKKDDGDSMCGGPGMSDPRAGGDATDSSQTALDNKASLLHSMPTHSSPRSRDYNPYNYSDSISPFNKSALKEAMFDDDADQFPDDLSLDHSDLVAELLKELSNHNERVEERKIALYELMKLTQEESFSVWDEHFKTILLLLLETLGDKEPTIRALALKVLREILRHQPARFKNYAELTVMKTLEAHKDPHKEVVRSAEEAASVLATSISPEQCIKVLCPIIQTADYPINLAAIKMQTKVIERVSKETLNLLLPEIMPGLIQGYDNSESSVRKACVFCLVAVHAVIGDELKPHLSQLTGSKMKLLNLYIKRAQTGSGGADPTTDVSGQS
UniProt Q8IZ52: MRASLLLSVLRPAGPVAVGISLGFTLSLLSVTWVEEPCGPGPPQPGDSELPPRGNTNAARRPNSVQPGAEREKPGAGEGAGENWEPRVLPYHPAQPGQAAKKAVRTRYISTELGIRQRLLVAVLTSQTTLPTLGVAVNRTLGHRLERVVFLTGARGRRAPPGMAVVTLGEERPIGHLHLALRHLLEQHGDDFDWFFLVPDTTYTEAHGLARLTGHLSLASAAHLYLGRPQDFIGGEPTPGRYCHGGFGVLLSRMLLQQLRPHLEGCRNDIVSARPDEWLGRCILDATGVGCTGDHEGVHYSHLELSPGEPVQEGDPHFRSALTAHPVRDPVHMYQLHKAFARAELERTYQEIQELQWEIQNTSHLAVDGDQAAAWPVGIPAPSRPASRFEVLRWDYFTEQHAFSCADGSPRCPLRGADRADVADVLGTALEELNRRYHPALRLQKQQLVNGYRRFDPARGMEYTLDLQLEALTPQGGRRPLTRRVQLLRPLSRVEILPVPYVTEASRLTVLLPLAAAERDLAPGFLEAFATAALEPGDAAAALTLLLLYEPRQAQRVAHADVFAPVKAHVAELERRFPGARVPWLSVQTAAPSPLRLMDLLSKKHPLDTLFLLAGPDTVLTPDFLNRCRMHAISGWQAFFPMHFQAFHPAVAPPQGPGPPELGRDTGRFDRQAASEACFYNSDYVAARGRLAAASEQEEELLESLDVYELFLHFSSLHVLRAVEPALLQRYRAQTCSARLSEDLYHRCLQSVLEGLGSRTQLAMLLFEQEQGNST
UniProt Q8N3C7: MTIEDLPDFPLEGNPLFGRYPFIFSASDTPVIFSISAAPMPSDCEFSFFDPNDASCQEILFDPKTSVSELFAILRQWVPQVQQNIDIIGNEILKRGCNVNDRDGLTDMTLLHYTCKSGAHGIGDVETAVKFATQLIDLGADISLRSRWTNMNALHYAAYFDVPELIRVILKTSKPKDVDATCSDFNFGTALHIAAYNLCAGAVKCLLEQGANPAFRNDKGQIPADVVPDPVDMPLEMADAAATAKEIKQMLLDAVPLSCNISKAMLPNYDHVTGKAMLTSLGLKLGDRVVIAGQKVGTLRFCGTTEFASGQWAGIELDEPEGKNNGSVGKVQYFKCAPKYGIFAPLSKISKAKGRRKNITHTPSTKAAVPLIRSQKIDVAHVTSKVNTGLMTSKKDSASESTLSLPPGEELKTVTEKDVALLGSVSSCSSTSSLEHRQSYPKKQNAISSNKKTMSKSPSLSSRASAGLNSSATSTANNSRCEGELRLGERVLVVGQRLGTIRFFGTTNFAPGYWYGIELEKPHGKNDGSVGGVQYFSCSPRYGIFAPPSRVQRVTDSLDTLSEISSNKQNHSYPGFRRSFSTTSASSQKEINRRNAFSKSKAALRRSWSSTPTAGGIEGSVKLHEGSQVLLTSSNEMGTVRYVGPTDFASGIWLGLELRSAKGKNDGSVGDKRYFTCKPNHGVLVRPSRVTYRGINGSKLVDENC

Key:
Test in all cases: log2 fold change, soluble protein after heating vs DMSO (PISA); higher = thermal stabilisation; K562 cells, 10 uM, 30 min; active = over 0.2 and 3.5 SD of the protein, either way, in both replicates (recomputed)
[1] = compound: COC1=CC=C(C=C1)CN2C=CC3=C2C=C(C=C3)C(=O)NO
How it was run: (§1)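 For each measurement, 10 μM compound was applied for 30 min to K562 cells at 2×10^6 cells/mL. Aliquots were heated for 3 min across 48°C-58°C, pooled, and extracted in PBS with 0.5% NP-40 at 4°C; the supernatant after 21,000xg for 90 min was soluble protein. This was quantified by TMTpro 16plex LC-MS/MS with channel sums equalised, and thermal stability was reported relative to control samples from duplicates, on a log2 fold-change scale.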

filanesib = compound: CON(C)C(=O)N1N=C(c2cc(F)ccc2F)S[C@@]1(CCCN)c1ccccc1 [filanesib]
How it was run: as §1

zotarolimus = compound: CO[C@H]1C[C@@H]2CC[C@@H](C)[C@@](O)(O2)C(=O)C(=O)N2CCCC[C@H]2C(=O)O[C@H]([C@H](C)C[C@@H]2CC[C@H](n3cnnn3)[C@H](OC)C2)CC(=O)[C@H](C)/C=C(\C)[C@@H](O)[C@@H](OC)C(=O)[C@H](C)C[C@H](C)/C=C/C=C/C=C/1C [zotarolimus]
How it was run: as §1

idasanutlin = compound: COc1cc(C(=O)O)ccc1NC(=O)[C@@H]1N[C@@H](CC(C)(C)C)[C@](C#N)(c2ccc(Cl)cc2F)[C@H]1c1cccc(Cl)c1F [idasanutlin]
How it was run: as §1

alisertib = compound: COc1cc(Nc2ncc3c(n2)-c2ccc(Cl)cc2C(c2c(F)cccc2OC)=NC3)ccc1C(=O)O [alisertib]
How it was run: as §1

[2] = compound: COc1cc2nc(-c3cc(F)ccc3O)nc(N[C@@H]3CNC[C@H]3C(C)(C)O)c2cc1OC
How it was run: as §1

gefitinib = compound: COc1cc2ncnc(Nc3ccc(F)c(Cl)c3)c2cc1OCCCN1CCOCC1 [gefitinib]
How it was run: as §1

[3] = compound: COc1cccc2cc(-c3nc([C@H]4CC[C@H](C(=O)O)CC4)n4ncnc(N)c34)[nH]c12
How it was run: as §1

lapatinib = compound: CS(=O)(=O)CCNCc1ccc(-c2ccc3ncnc(Nc4ccc(OCc5cccc(F)c5)c(Cl)c4)c3c2)o1 [lapatinib]
How it was run: as §1

pictilisib = compound: CS(=O)(=O)N1CCN(Cc2cc3nc(-c4cccc5[nH]ncc45)nc(N4CCOCC4)c3s2)CC1 [pictilisib]
How it was run: as §1

Measured: log2 fold change

CMTM6 (UniProt Q9NX76)
inactive: [1] -0.105 | filanesib 0.105 | zotarolimus -0.095 | idasanutlin -0.052 | alisertib -0.161 | [2] 0.12 | gefitinib 0.051 | [3] 0.031 | lapatinib -0.076

CLCN2 (UniProt P51788)
inactive: [1] 0.075 | filanesib 0.004 | zotarolimus -0.047 | idasanutlin -0.006 | alisertib -0.017 | [2] -0.005 | gefitinib 0.171 | [3] -0.005 | lapatinib -0.005

CLTA isoform 2 (UniProt P09496)
inactive: [1] -0.041 | filanesib -0.01 | zotarolimus -0.048 | idasanutlin 0 | alisertib -0.079 | [2] -0.008 | gefitinib -0.02 | [3] -0.004 | lapatinib 0.008

CLUH (UniProt O75153)
inactive: [1] -0.026 | filanesib 0.07 | zotarolimus 0.028 | idasanutlin -0.074 | alisertib -0.072 | [2] -0.022 | gefitinib -0.001 | [3] -0.152 | lapatinib 0.006

CLUH, A0A494C0R8
inactive: [1] 0.131 | filanesib 0.168 | zotarolimus -0.065 | idasanutlin 0.027 | alisertib 0.007 | [2] -0.024 | gefitinib 0.078 | [3] -0.227 | lapatinib -0.011

CLPB isoform 2 (UniProt Q9H078)
inactive: [1] -0.036 | filanesib -0.038 | zotarolimus -0.021 | idasanutlin -0.041 | alisertib -0.053 | [2] -0.138 | gefitinib -0.017 | [3] 0.021 | lapatinib 0.038

COL15A1 (UniProt P39059)
inactive: [1] 0.055 | filanesib -0.005 | zotarolimus -0.018 | idasanutlin -0.055 | alisertib -0.085 | [2] 0.05 | gefitinib 0.02 | [3] 0.067 | lapatinib 0.14

CLPTM1 (UniProt O96005)
inactive: [1] 0.052 | filanesib -0.094 | zotarolimus 0.041 | idasanutlin -0.061 | alisertib -0.05 | [2] -0.109 | gefitinib 0.014 | [3] -0.02 | lapatinib 0.046

CLIC1 (UniProt O00299)
inactive: [1] -0.014 | filanesib -0.029 | zotarolimus 0.037 | idasanutlin -0.006 | alisertib -0.069 | [2] 0.005 | gefitinib -0.013 | [3] -0.011 | lapatinib -0.018

CLTC (UniProt Q00610)
inactive: [1] 0.016 | filanesib -0.051 | zotarolimus -0.009 | idasanutlin -0.13 | alisertib -0.082 | [2] 0.059 | gefitinib 0.068 | [3] -0.053 | lapatinib 0.045

CLCN7 (UniProt P51798)
active: filanesib -0.294
inactive: [1] 0.112 | zotarolimus 0.008 | idasanutlin -0.006 | alisertib -0.084 | [2] -0.077 | gefitinib -0.144 | [3] 0.023 | lapatinib -0.011

CLN5 (UniProt O75503)
inactive: [1] 0.021 | filanesib -0.385 | zotarolimus 0.075 | idasanutlin 0.049 | alisertib 0.265 | [2] -0.65 | gefitinib -0.341 | [3] 0.27 | lapatinib -0.028

Two consecutive records out of the list so far:
CLUH (UniProt O75153)
inactive: [1] -0.026 | filanesib 0.07 | zotarolimus 0.028 | idasanutlin -0.074 | alisertib -0.072 | [2] -0.022 | gefitinib -0.001 | [3] -0.152 | lapatinib 0.006

CLUH, A0A494C0R8
inactive: [1] 0.131 | filanesib 0.168 | zotarolimus -0.065 | idasanutlin 0.027 | alisertib 0.007 | [2] -0.024 | gefitinib 0.078 | [3] -0.227 | lapatinib -0.011

More entries follow:

CNIH4 (UniProt Q9P003)
inactive: [1] 0.175 | filanesib 0 | zotarolimus -0.034 | idasanutlin -0.16 | alisertib -0.016 | [2] 0.066 | gefitinib 0.054 | [3] -0.043 | lapatinib -0.051

CLCC1 (UniProt Q96S66)
inactive: [1] -0.041 | filanesib -0.075 | zotarolimus -0.022 | idasanutlin -0.033 | alisertib 0 | [2] -0.002 | gefitinib -0.021 | [3] 0.083 | lapatinib -0.034

CLDND1 (UniProt Q9NY35)
inactive: [1] 0.047 | filanesib 0.079 | zotarolimus -0.166 | idasanutlin 0.041 | alisertib 0.031 | [2] 0.021 | gefitinib 0.056 | [3] 0.01 | lapatinib 0.006

CLNS1A (UniProt P54105)
inactive: [1] 0.055 | filanesib -0.036 | zotarolimus 0.019 | idasanutlin 0.028 | alisertib -0.084 | [2] 0.016 | gefitinib 0.023 | [3] -0.013 | lapatinib -0.005

CLCN3 (UniProt P51790)
inactive: [1] -0.158 | filanesib -0.12 | zotarolimus -0.099 | idasanutlin -0.095 | alisertib -0.016 | [2] 0.031 | gefitinib 0.045 | [3] 0.058 | lapatinib -0.06

CLPX (UniProt O76031)
inactive: [1] 0.077 | filanesib -0.07 | zotarolimus -0.052 | idasanutlin -0.007 | alisertib -0.026 | [2] -0.017 | gefitinib 0.019 | [3] 0.021 | lapatinib 0.014

CLTB (UniProt P09497)
active: [1] 0.263
inactive: filanesib -0.053 | zotarolimus -0.006 | idasanutlin -0.02 | alisertib -0.106 | [2] 0 | gefitinib 0.017 | [3] 0.028 | lapatinib -0.014

COG5 isoform 2 (UniProt Q9UP83)
inactive: [1] 0.051

CLIC2 (UniProt O15247)
inactive: [1] 0.072 | filanesib -0.02 | zotarolimus 0.092 | idasanutlin 0.026 | alisertib -0.057 | [2] 0.027 | gefitinib 0.032 | [3] -0.076 | lapatinib -0.025

CLSPN (UniProt Q9HAW4)
inactive: [1] -0.076 | filanesib 0.053 | zotarolimus -0.034 | idasanutlin 0.107 | alisertib 0.004 | [2] -0.111 | gefitinib -0.019 | [3] -0.018 | lapatinib 0.053

CLINT1 isoform 3 (UniProt Q14677)
inactive: [1] -0.159 | filanesib 0.155 | zotarolimus -0.031 | idasanutlin 0 | alisertib -0.105 | [2] 0.074 | gefitinib 0.148 | [3] -0.041 | lapatinib 0.014

CLEC16A (UniProt Q2KHT3)
inactive: [1] -0.011 | filanesib 0.091 | zotarolimus -0.027 | idasanutlin -0.001 | alisertib -0.092 | [2] 0.003 | gefitinib -0.029 | [3] 0.005 | lapatinib -0.012

CHST2 (UniProt Q9Y4C5)
inactive: [1] 0.017 | filanesib 0.234 | zotarolimus -0.042 | idasanutlin -0.162 | alisertib -0.061 | [2] 0.076 | gefitinib 0.143 | [3] -0.129 | lapatinib 0.078

CLASP2 isoform 3 (UniProt O75122)
inactive: [1] 0.021 | filanesib 0.068 | zotarolimus 0.033 | idasanutlin -0.024 | alisertib -0.021 | [2] 0.055 | gefitinib -0.002 | [3] 0.003 | lapatinib -0.009

CHPF (UniProt Q8IZ52)
inactive: [1] -0.096 | filanesib -0.04 | zotarolimus -0.01 | idasanutlin 0.304 | alisertib -0.077 | [2] -0.132 | gefitinib 0.161 | [3] -0.025 | lapatinib 0.066

CLCN3 isoform 2 (UniProt P51790)
inactive: [1] 0.057 | filanesib -0.151 | zotarolimus -0.031 | idasanutlin -0.008 | alisertib 0.03 | [2] -0.064 | gefitinib -0.015 | [3] 0.04 | lapatinib 0.008

CLCN6 isoform 5 (UniProt P51797)
inactive: [1] 0.101 | filanesib -0.074 | zotarolimus -0.116 | idasanutlin -0.017 | alisertib -0.169 | [2] -0.002 | gefitinib -0.071 | [3] 0.096 | lapatinib -0.068

CLIP4 (UniProt Q8N3C7)
inactive: [1] 0.022 | filanesib -0.103 | zotarolimus -0.018 | idasanutlin 0.045 | alisertib 0.269 | [2] 0.005 | gefitinib 0.013 | [3] -0.194 | lapatinib -0.166

CLGN (UniProt O14967)
inactive: [1] 0.018 | filanesib 0.141 | zotarolimus -0.057 | idasanutlin -0.016 | alisertib -0.007 | [2] 0.001 | gefitinib -0.047 | [3] -0.056 | lapatinib -0.079

CLIP1 isoform 1 (UniProt P30622)
inactive: [1] -0.046 | filanesib -0.02 | zotarolimus -0.01 | idasanutlin 0.011 | alisertib -0.018 | [2] 0.031 | gefitinib 0.008 | [3] 0.024 | lapatinib -0.029

CIT isoform 4 (UniProt O14578)
active: [2] -0.228
inactive: [1] -0.099 | filanesib 0.055 | zotarolimus -0.003 | idasanutlin 0.027 | alisertib -0.036 | gefitinib -0.12 | [3] -0.06 | lapatinib 0.031 | pictilisib -0.044
